Source: article PMC4236683
No constants are given. Whether binding was seen depends on the method and setting. Some results given as binding are weak or reduced against the parent protein; the word gives no strength. Where a sequence is shown, tags or fusion partners need not be part of it.

How the values were obtained:
Assay in all cases: binding of AP-clustered Fc fusion protein to transfected cells; COS7 cells transfected with PlexA or semaphorin constructs, incubated 75 min in OptiMEM with Fc fusion protein preclustered with anti-human IgG conjugated to alkaline phosphatase; rinsed, fixed, developed with NBT/BCIP; only the binder purified
[1] = biological target: T1, 6xMyc N-terminal-tagged full-length (FL)-Sema5A (rat) (UniProt D3ZTD8)
T1 sequence: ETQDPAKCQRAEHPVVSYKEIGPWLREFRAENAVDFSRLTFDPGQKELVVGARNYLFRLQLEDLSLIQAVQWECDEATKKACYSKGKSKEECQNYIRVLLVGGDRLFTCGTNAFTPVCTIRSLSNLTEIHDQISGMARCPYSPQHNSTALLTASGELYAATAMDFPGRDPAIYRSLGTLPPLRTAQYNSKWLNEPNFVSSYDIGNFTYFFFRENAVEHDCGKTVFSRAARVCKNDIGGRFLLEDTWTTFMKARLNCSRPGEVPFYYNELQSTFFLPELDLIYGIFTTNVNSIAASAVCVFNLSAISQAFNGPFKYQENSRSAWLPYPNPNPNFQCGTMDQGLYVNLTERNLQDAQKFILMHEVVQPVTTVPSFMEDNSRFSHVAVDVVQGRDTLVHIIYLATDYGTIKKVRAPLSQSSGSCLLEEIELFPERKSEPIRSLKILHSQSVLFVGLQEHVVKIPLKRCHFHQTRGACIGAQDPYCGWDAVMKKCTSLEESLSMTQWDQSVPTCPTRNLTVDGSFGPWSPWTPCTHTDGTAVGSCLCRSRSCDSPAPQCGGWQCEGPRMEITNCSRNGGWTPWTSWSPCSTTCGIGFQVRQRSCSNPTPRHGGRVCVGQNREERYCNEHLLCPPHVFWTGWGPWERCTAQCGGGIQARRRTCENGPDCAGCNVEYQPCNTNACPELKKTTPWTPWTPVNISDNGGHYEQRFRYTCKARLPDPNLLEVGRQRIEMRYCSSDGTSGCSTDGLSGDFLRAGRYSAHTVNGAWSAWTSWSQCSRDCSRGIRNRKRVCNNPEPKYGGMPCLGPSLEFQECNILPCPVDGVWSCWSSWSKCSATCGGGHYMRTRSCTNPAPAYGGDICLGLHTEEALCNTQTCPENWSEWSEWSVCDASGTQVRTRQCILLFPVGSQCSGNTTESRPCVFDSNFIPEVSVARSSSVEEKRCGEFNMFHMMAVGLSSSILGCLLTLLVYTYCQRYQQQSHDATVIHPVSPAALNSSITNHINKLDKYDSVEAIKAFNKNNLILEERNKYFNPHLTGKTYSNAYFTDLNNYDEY

Sema6A = biological target: T2, Sema6A (UniProt O35464)
T2 sequence: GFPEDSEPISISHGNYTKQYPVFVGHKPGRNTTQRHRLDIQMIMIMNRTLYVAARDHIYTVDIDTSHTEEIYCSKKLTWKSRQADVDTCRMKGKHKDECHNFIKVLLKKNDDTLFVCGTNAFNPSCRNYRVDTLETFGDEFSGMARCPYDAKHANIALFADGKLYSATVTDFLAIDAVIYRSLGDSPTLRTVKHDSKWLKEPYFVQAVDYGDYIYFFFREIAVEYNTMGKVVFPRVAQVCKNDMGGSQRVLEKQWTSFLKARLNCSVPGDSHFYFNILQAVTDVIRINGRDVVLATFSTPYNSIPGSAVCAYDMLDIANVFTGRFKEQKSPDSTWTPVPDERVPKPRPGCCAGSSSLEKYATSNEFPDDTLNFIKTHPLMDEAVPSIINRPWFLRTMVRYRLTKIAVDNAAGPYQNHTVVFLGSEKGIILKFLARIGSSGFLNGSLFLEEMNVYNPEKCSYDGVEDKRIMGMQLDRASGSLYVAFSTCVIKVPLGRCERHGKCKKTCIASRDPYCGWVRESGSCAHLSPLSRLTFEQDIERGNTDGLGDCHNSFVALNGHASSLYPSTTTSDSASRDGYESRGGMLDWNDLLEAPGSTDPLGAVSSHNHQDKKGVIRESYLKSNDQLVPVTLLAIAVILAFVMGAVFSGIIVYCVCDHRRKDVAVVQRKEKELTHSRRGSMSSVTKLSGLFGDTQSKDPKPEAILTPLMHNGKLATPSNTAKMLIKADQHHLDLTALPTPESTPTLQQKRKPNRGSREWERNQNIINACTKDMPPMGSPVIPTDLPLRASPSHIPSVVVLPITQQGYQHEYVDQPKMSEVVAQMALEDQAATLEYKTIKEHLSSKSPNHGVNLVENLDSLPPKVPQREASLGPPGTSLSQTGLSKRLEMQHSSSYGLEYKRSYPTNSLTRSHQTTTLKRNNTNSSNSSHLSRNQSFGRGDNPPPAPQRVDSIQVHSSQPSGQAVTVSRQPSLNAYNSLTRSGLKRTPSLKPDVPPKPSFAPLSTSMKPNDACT

[2] = biological target: T3, membrane-bound Sema5A lacking the seven TSRs (6xMyc-Sema5A^ΔTSR) (rat) (UniProt D3ZTD8)
T3 sequence: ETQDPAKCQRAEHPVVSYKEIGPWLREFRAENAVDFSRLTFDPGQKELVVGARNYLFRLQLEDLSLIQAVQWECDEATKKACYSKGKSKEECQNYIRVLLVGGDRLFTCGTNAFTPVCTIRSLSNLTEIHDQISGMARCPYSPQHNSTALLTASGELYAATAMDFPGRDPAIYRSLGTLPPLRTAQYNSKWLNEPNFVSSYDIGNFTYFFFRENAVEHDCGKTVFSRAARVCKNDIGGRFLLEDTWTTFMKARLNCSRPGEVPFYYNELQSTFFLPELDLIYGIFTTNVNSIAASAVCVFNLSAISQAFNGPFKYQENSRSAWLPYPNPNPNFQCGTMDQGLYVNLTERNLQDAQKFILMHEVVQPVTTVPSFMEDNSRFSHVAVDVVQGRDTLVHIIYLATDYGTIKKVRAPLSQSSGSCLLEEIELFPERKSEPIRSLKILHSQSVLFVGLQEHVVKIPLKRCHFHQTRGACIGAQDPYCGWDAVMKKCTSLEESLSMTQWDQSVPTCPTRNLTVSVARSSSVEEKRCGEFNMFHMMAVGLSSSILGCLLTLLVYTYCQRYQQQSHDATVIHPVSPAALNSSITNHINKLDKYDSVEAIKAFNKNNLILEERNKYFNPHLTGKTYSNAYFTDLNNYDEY

Measured: binding

B1: sema domain of PlexA2 fused to Fc (PlexA2^SD-Fc) (Fc fusion, UniProt P70207 35-508)
chain: MPQYSTFHSENRDWTFNHLTVHRRTGAVYVGAINRVYKLTGNLTIQVAHKTGPEEDNKACYPPLIVQPCSEVLTLTNNVNKLLIIDYSENRLLACGSLYQGVCKLLRLDDLFILVEPSHKKEHYLSSVNKTGTMYGVIVRSEGEDGKLFIGTAVDGKQDYFPTLSSRKLPRDPESSAMLDYELHSDFVSSLIKIPSDTLALVSHFDIFYIYGFASGGFVYFLTVQPETPDGMAINSAGDLFYTSRIVRLCKDDPKFHSYVSLPFGCTRAGVEYRLLQAAYLAKPGEALAQAFNISSDEDVLFAIFSKGQKQYHHPPDDSALCAFPIRAINLQIKERLQSCYHGEGNLELNWLLGKDVQCTKAPVPIDDNFCGLDINQPLGGSTPVEGLTLYTTSRDRLTSVASYVYNGYSVVFVGTKSGKLKKIRADGPPHGGVQYEMVSVFKDGSPILRDMAFSINQLYLYVMSERQVTRVPV
binds: all assays above
